This note sets out measurements from patent US20240358735A1, “THERAPEUTIC COMPOSITIONS AND RELATED METHODS” (BOYCE THOMPSON INSTITUTE FOR PLANT RESEARCH, INC., priority 2021, published 2024).

SMILES strings stand for the structures.

In the data set the test system is Cbr-cest-2 mutants. Kind of data set: Comparative metabolomics (HPLC-HRMS) of Cbr-cest-2 mutants versus wildtype C. briggsae (AF16). The following applies: abundance of the metabolite in Cbr-cest-2 mutants compared to C. briggsae wildtype (AF16).
In the case of `O=C(OC[C@H]1O[C@@H](n2ccc3ccccc32)[C@H](OC(=O)c2cccnc2)[C@@H](OP(=O)(O)O)[C@@H]1O)c1cccnc1` [iglu#56], the “Cbr-cest-2 fold over WT (AF16), average of 4 repeats” value (“Cbr-cest-2 fold over WT (AF16)” for short) came out at 0.001679.
The same measure for `O=C(O[C@@H]1[C@@H](OP(=O)(O)O)[C@H](O)[C@@H](CO)O[C@H]1n1ccc2ccccc21)c1ccc[nH]1` [iglu#101, (2R,3R,4S,5R,6R)-5-hydroxy-6-(hydroxymethyl)-2-(1H-indol-1-yl)-4-(phosphonooxy)tetrahydro-2H-pyran-3-yl 1H-pyrrole-2-carboxylate]: 0.0153; for `O=C(O[C@@H]1[C@@H](OP(=O)(O)O)[C@H](O)[C@@H](CO)O[C@H]1n1ccc2ccccc21)c1ccccc1` [iglu#121, (2R,3R,4S,5R,6R)-5-hydroxy-6-(hydroxymethyl)-2-(1H-indol-1-yl)-4-(phosphonooxy)tetrahydro-2H-pyran-3-yl benzoate]: 5.40E−05.
For the compound `CCCCCCCC/C=C/C(=O)OC[C@H]1O[C@@H](Oc2ccc(CCN)cc2)[C@H](OC(=O)c2cccnc2)[C@@H](OP(=O)(O)O)[C@@H]1O` [tyglu#56], the “Cbr-cest-2 fold over WT (AF16)” value was determined as 0.0005263.
Turning to `CC(C)CC(=O)OC[C@H]1O[C@@H](OC(=O)c2ccccc2N)[C@H](OC(=O)c2cccnc2)[C@@H](OP(=O)(O)O)[C@@H]1O` [angl#21], the “Cbr-cest-2 fold over WT (AF16)” value is recorded as 0.007016.
The same measure for `Nc1ccccc1C(=O)C[C@@H]1O[C@H](COC(=O)c2ccccc2)[C@@H](O)[C@H](OP(=O)(O)O)[C@H]1OC(=O)c1ccccc1` [angl#70]: 8.68E−05; for `Nc1ccccc1C(=O)O[C@@H]1[C@@H](CP(=O)(O)O)[C@H](O)[C@@H](COC(=O)c2ccc(O)cc2)O[C@H]1n1ccc2ccccc21` [iglu#76]: 0.000714; for `C/C=C(\C)C(=O)O[C@H]1[C@H](Oc2ccc(CCN)cc2)O[C@H](COC(=O)c2ccccc2N)[C@@H](O)[C@@H]1OP(=O)(O)O` [tyglu#8]: 0.0001841.
The same measure for `CC(C)CC(=O)OC1C(Oc2ccc(CCN)cc2)OC(COC(=O)c2ccc[nH]2)C(O)C1OP(=O)(O)O` (stereo not shown) [tyglu#22]: 0.006583; for `CC(C)CC(=O)OC[C@H]1O[C@@H](Oc2ccc(CCN)cc2)[C@H](OC(=O)c2ccccc2N)[C@@H](OP(=O)(O)O)[C@@H]1O` [tyglu#52]: 0.0001584; for `Nc1ccccc1C(=O)O[C@@H]1O[C@H](COC(=O)C(N)Cc2ccccc2)[C@@H](O)[C@H](OP(=O)(O)O)[C@H]1OC(=O)c1ccccc1` (stereo partly shown) [angl#38]: 0.01503.
The same measure for `NCCc1ccc(O[C@@H]2O[C@H](COC(=O)Cc3ccc(O)cc3)[C@@H](O)[C@H](OP(=O)(O)O)[C@H]2OC(=O)c2ccccc2N)cc1` [tyglu#37]: 0.0002348.
Turning to `C[C@@H]1O[C@@H](OCCC(=O)OC[C@H]2O[C@@H](Oc3ccc(CCN)cc3)[C@H](OC(=O)c3ccccc3N)[C@@H](OP(=O)(O)O)[C@@H]2O)[C@H](O)C[C@H]1O` [tyglas#5], the “Cbr-cest-2 fold over WT (AF16)” value worked out at 0.001127.
The same measure for `O=C(/C=C/c1cnc[nH]1)OC[C@H]1O[C@@H](n2ccc3ccccc32)[C@H](OC(=O)c2ccccc2)[C@@H](OP(=O)(O)O)[C@@H]1O` [iglu#69]: 0.0008321; for `O=C(OC[C@H]1O[C@@H](n2ccc3ccccc32)[C@H](OC(=O)c2ccccc2)[C@@H](OP(=O)(O)O)[C@@H]1O)c1ccccc1` [iglu#50]: 9.54E−05.
On to `NCCc1ccc(O[C@@H]2O[C@H](COC(=O)c3ccccc3)[C@@H](O)[C@H](OP(=O)(O)O)[C@H]2OC(=O)c2ccccc2)cc1` [tyglu#32], for which the “Cbr-cest-2 fold over WT (AF16)” value is given as 0.001228.
Regarding `CCCC(O)CC(=O)CC(=O)OC[C@H]1O[C@@H](Oc2ccc(CCN)cc2)[C@H](OC(=O)c2ccccc2N)[C@@H](OP(=O)(O)O)[C@@H]1O` (stereo partly shown) [tyglu#45], the “Cbr-cest-2 fold over WT (AF16)” value was 0.0006813.
Regarding `Nc1ccccc1C(=O)C[C@@H]1O[C@H](COC(=O)c2ccc[nH]2)[C@@H](O)[C@H](OP(=O)(O)O)[C@H]1OC(=O)c1ccccc1N` [angl#52], the “Cbr-cest-2 fold over WT (AF16)” value stood at 0.000376.
The same measure for `CCCCCCCCC(=O)CC(=O)O[C@H]1[C@H](Oc2ccc(CCN)cc2)O[C@H](CO)[C@@H](O)[C@@H]1OP(=O)(O)O` [tyglu#53]: 0.002604.
The same measure for `CCC/C=C/C=C\C=C\C(=O)OC[C@H]1O[C@@H](Oc2ccc(CCN)cc2)[C@H](OC(=O)c2ccccc2N)[C@@H](OP(=O)(O)O)[C@@H]1O` [tyglu#50]: 0.002938; for `O=C(OC[C@H]1O[C@@H](n2ccc3ccccc32)[C@H](OC(=O)c2ccccc2)[C@@H](OP(=O)(O)O)[C@@H]1O)c1cccnc1` [iglu#52]: 0.00003754; for `C/C=C(\C)C(O)OC1C(CC(=O)c2ccccc2N)OC(COC(=O)C(N)Cc2ccccc2)C(O)C1OP(=O)(O)O` (stereo not shown) [angl#34]: 0.01495.
As for `NCC(O)c1ccc(O[C@@H]2O[C@H](COC(=O)c3ccccc3N)[C@@H](O)[C@H](OP(=O)(O)O)[C@H]2O)cc1` (stereo partly shown) [oglu#4], the “Cbr-cest-2 fold over WT (AF16)” value is 0.0077.
The same measure for `Nc1ccccc1C(=O)OC[C@H]1O[C@@H](CC(=O)c2ccc(O)cc2)[C@H](OC(=O)c2ccc(O)cc2)[C@@H](OP(=O)(O)O)[C@@H]1O` [angl#48]: 0.0004702; for `Nc1ccccc1C(=O)O[C@@H]1O[C@H](COC(=O)c2ccccc2)[C@@H](O)[C@H](OP(=O)(O)O)[C@H]1OC(=O)c1cccnc1` [angl#28]: 0.0005889.
The same measure for `C/C=C(\C)C(=O)O[C@@H]1[C@@H](OP(=O)(O)O)[C@H](O)[C@@H](COC(=O)c2ccccc2N)O[C@H]1n1ccc2ccccc21` [iglu#42]: 0.008524; for `C/C=C(\C)C(=O)O[C@@H]1[C@@H](OP(=O)(O)O)[C@H](O)[C@@H](COC(=O)c2cccnc2)O[C@H]1n1ccc2ccccc21` [iglu#31]: 0.0001071; for `Nc1ccccc1C(=O)O[C@@H]1[C@@H](CP(=O)(O)O)[C@H](O)[C@@H](COC(=O)Cc2ccc(O)cc2)O[C@H]1n1ccc2ccccc21` [iglu#86]: 0.0003456.
As for `CC(C)CC(=O)OC1C(OC(=O)c2ccccc2N)OC(CO)C(O)C1OP(=O)(O)O` (stereo not shown) [angl#46], the “Cbr-cest-2 fold over WT (AF16)” value is 0.0002486.
For `Nc1ccccc1C(=O)O[C@@H]1[C@@H](OP(=O)(O)O)[C@H](O)[C@@H](COC(=O)/C=C/c2c[nH]cn2)O[C@H]1n1ccc2ccccc21` [iglu#82], the “Cbr-cest-2 fold over WT (AF16)” value amounted to 0.001493.
The same measure for `Nc1ccccc1C(=O)O[C@@H]1O[C@H](COC(=O)c2ccccc2)[C@@H](O)[C@H](OP(=O)(O)O)[C@H]1OC(=O)c1cccnc1` [angl#29]: 0.0008133.
In the case of `CCCCCCCCCCCC(=O)OC[C@H]1O[C@@H](OC(=O)c2ccccc2N)[C@H](OC(=O)c2ccccc2N)[C@@H](OP(=O)(O)O)[C@@H]1O` [angl#40], the “Cbr-cest-2 fold over WT (AF16)” value is listed as 0.0007132.
As for `NCCc1ccc(O[C@@H]2O[C@H](CO)[C@@H](O)[C@H](OP(=O)(O)O)[C@H]2OC(=O)c2cccnc2)cc1` [tyglu#501], the “Cbr-cest-2 fold over WT (AF16)” value came to 0.00188.
The same measure for `C/C=C(\C)C(=O)OC[C@H]1O[C@@H](OC(=O)c2ccccc2N)[C@H](OC(=O)c2ccccc2N)[C@@H](OP(=O)(O)O)[C@@H]1O` [iglu#88]: 8.01E−05; for `NCC(O)c1ccc(C[C@@H]2O[C@H](COC(=O)c3ccc[nH]3)[C@@H](O)[C@H](OP(=O)(O)O)[C@H]2OC(=O)c2ccccc2N)cc1` (stereo partly shown) [oglu#1401]: 0.01398.
The same measure for `Nc1ccccc1C(=O)C[C@@H]1O[C@H](COC(=O)c2ccc[nH]2)[C@@H](O)[C@H](OP(=O)(O)O)[C@H]1OC(=O)c1ccccc1N` [angl#51]: 0.003943; for `NCCc1ccc(O[C@@H]2O[C@H](CO)[C@@H](O)[C@H](OP(=O)(O)O)[C@H]2OC(=O)c2ccc[nH]2)cc1` [tyglu#181]: 0.004887.
The same measure for `C[C@H](CCC(=O)O[C@H]1[C@H](Oc2ccc(CCN)cc2)O[C@H](CO)[C@@H](O)[C@@H]1OP(=O)(O)O)O[C@@H]1O[C@@H](C)[C@H](O)C[C@H]1O` [tyglas#9]: 0.01907; for `CCCC(=O)OC[C@H]1O[C@@H](n2ccc3ccccc32)[C@H](OC(=O)c2ccccc2N)[C@@H](OP(=O)(O)O)[C@@H]1O` [iglu#84]: 0.0001773; for `CCCCCCCC/C=C/C(=O)O[C@H]1[C@H](Oc2ccc(CCN)cc2)O[C@H](CO)[C@@H](O)[C@@H]1OP(=O)(O)O` [tyglu#54]: 0.002112.
Take `C/C=C(\C)C(=O)OCC1OC(OC(=O)c2ccccc2N)C(OC(=O)CC(C)C)C(OP(=O)(O)O)C1O` (stereo not shown) [angl#54]: the “Cbr-cest-2 fold over WT (AF16)” value was 0.0006744.
The same measure for `CCCCCC(=O)CC(=O)OC[C@H]1O[C@@H](Cc2ccc(C(O)CN)cc2)[C@H](OC(=O)c2ccccc2N)[C@@H](OP(=O)(O)O)[C@@H]1O` (stereo partly shown) [oglu#22]: 0.000583; for `Nc1ccccc1C(=O)OC[C@H]1O[C@@H](n2ccc3ccccc32)[C@H](OC(=O)c2ccc(O)cc2)[C@@H](CP(=O)(O)O)[C@@H]1O` [iglu#75]: 0.001993; for `C/C=C(\C)C(=O)OC[C@H]1O[C@@H](OC(=O)c2ccccc2N)[C@H](OC(=O)/C(C)=C/C)[C@@H](OP(=O)(O)O)[C@@H]1O` [angl#26]: 1.71E−05.
The same measure for `O=C(OC[C@H]1O[C@@H](n2ccc3cc(O)ccc32)[C@H](OC(=O)c2ccccc2)[C@@H](OP(=O)(O)O)[C@@H]1O)c1cccnc1` [higlu#3]: 0.0004773; for `CCC(C)C(=O)O[C@H]1[C@H](Oc2ccc(CCN)cc2)O[C@H](CO)[C@@H](O)[C@@H]1OP(=O)(O)O` (stereo partly shown) [tyglu#131]: 0.001614.
